The term AC50 denotes the concentration giving half of the maximal activity seen.

In PubChem BioAssay (NCATS) one finds z-score and AC50 data, which are given here for 14 compounds.

Molecules are shown by their SMILES. The list shows a part of the results. These are further read-outs of the screen, such as a control signal, another cell line or another target. No call is given for them. Compounds called inactive in the main read-out are mostly missing here. Words in brackets tell the shape of the fitted curve; partial curves, single points and poor fits give uncertain potencies.

The experiment can be described thus: qHTS for identification of novel therapeutic agents for treatment of microphthalmiaassociated transcription factor (MiT) renal cell carcinoma (RCC) (AID 1963991). As to conditions: CellTiter-Glo, 48 h; for z-score: stronger effect = lower value. The essentials:
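UOK109/UOK124/UOK145 (TFE3 fusions, three partners); 500 cells/well; MIPE v4.0, 1912 cpds, 11 conc.; 48 h, 37 C; CellTiter-Glo, 15 min RT; lum. Norm.: DMSO 100%, empty 0%.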
In general terms: Quantitative high-throughput screening tests each substance at several concentrations.

[1] abbreviates: TFE3-RCC UOK109 viability, measured here: UOK109 Z-AUC.
Where [2] appears, read: TFE3-RCC viability, measured here: UOK124 Z-AUC.
[3] abbreviates: TFE3-RCC viability, measured here: UOK124 cell viability.
Where [4] appears, read: TFE3-RCC viability, measured here: UOK145 Z-AUC.
Where [5] appears, read: TFE3-RCC viability, measured here: UOK145 cell viability.

For the compound `Cc1cc(Nc2cc(N3CCN(C)CC3)nc(C=Cc3ccccc3)n2)n[nH]1`, the z-score is -0.0936 under setting [1], -0.896 under setting [2] and -0.0258 under setting [4]. For the same compound, the AC50 reads like this: under setting [3], 12.1 µM [falling, partial curve]; under setting [5], 34 µM [falling, partial curve].

`CS(=O)(=O)CCNCc1ccc(-c2ccc3ncnc(Nc4ccc(OCc5cccc(F)c5)c(Cl)c4)c3c2)o1`: the z-score under setting [1] was -2, the z-score under setting [2] is -0.327 and the z-score under setting [4] is -0.965. Moreover, the AC50 by setting is: under setting [3], 20.9 µM [falling, partial curve]; under setting [5], 14.8 µM [falling, partial curve].

Take `COc1cc(C=CC(=O)CC(=O)C=Cc2ccc(O)c(OC)c2)ccc1O`: the z-score is, setting by setting: under setting [1], -0.0278; under setting [2], -0.0234; under setting [4], -0.601. For the same compound, the AC50 was 34 µM [falling, partial curve] under setting [3] and 17.1 µM [falling, full curve] under setting [5].

Take `COc1ccc2cc1Oc1ccc(cc1)C[C@H]1c3cc(c(OC)cc3CCN1C)Oc1c(OC)c(OC)cc3c1[C@H](C2)N(C)CC3`: the z-score was -0.211 under setting [1], 0.216 under setting [2] and 0.15 under setting [4]. Also, the AC50 was 11.8 µM [falling, partial curve, poor fit] under setting [3] and 14.8 µM [falling, partial curve, poor fit] under setting [5].

As to `C[C@H](NCc1ccc(OCc2cccc(F)c2)cc1)C(N)=O`, the z-score reads like this: under setting [1], -0.688; under setting [2], -0.907; under setting [4], -0.364. Moreover, the AC50 is, setting by setting: under setting [3], 5.9 µM [falling, full curve]; under setting [5], 9.35 µM [falling, partial curve].

As to `CN[C@@H](C)C(=O)N[C@H]1CN(C(=O)CC(C)C)CC[C@H]2CC[C@@H](C(=O)NC(c3ccccc3)c3ccccc3)N2C1=O`, the z-score is -0.753 under setting [1], -1.04 under setting [2] and 0.0466 under setting [4]. Moreover, the AC50 by setting is: under setting [3], 2.96 µM [falling, full curve]; under setting [5], 5.26 µM [falling, full curve].

With `CC(C)c1ccccc1Cc1cc(C(=O)Nc2ccc(S(=O)(=O)c3ccccc3C(C)(C)C)cc2)c(O)c(O)c1O`, the z-score was 0.0865 under setting [1], 0.00636 under setting [2] and -0.434 under setting [4]. Also, the AC50 is 5.26 µM [falling, full curve] under setting [3] and 9.35 µM [falling, full curve] under setting [5].

Take `Cc1nc(NC(=O)N2CCC[C@@H]2C(N)=O)sc1-c1csc(C(C)(C)C)n1`: the z-score by setting is: under setting [1], -1.86; under setting [2], -0.284; under setting [4], 0.132. For the same compound, the AC50 under setting [3] is 3.72 µM [falling, full curve, poor fit] and the AC50 under setting [5] is 5.9 µM [falling, partial curve].

As to `CCn1c(-c2nonc2N)nc2c(C#CC(C)(C)O)ncc(OC[C@H]3CCCNC3)c21`, the z-score is, setting by setting: under setting [1], -0.00371; under setting [2], -2.79; under setting [4], -0.344. The AC50 runs as follows: under setting [3], 37.2 µM [falling, single point]; under setting [5], 26.4 µM [falling, single point].

Take `Cc1ccc2nc(NC(=O)CSc3nc4c(c(=O)n3-c3ccccc3)SCC4)sc2c1`: the z-score under setting [1] was 0.394, the z-score under setting [2] was found to be 0.323 and the z-score under setting [4] was -0.362. Further, the AC50 was 11.8 µM [falling, partial curve] under setting [3] and 20.9 µM [falling, partial curve] under setting [5].

Take `COc1ccccc1[C@H](c1cccc2ccccc12)[C@@](C)(C#N)C(=O)N1CCC(c2cccc(C(F)(F)F)c2)CC1`: the z-score was 0.101 under setting [1], -0.174 under setting [2] and 0.831 under setting [4]. Also, the AC50 under setting [3] was 16.6 µM [falling, partial curve, poor fit] and the AC50 under setting [5] is 16.6 µM [falling, partial curve].

`CC[C@@H]1C=C(C)C[C@H](C)C[C@H](OC)[C@H]2O[C@@](O)(C(=O)C(=O)N3CCCC[C@@H]3C(=O)O[C@H](C(C)=C[C@@H]3CC[C@H](Cl)[C@H](OC)C3)[C@H](C)[C@@H](O)CC1=O)[C@H](C)C[C@H]2OC`: the z-score by setting is: under setting [1], 0.532; under setting [2], 0.567; under setting [4], 0.485. Also, the AC50 runs as follows: under setting [3], 16.6 µM [falling, partial curve]; under setting [5], 23.5 µM [falling, single point].

For the compound `CN1CCN(c2cc(C(=O)Nc3ccc4c(c3)-c3c(c(C(N)=O)nn3-c3ccc(F)cc3)CC4)c(Cl)cn2)CC1`, the z-score runs as follows: under setting [1], -1.15; under setting [2], -0.0695; under setting [4], -0.664. Besides, the AC50 was 18.7 µM [falling, partial curve] under setting [3] and 16.6 µM [falling, partial curve] under setting [5].

For the compound `C=CC[C@@H]1C=C(C)C[C@H](C)C[C@H](OC)[C@H]2O[C@@](O)(C(=O)C(=O)N3CCCC[C@H]3C(=O)O[C@H](C(C)=C[C@@H]3CC[C@H](O)[C@H](OC)C3)[C@@H](C)[C@@H](O)CC1=O)[C@@H](C)C[C@@H]2OC`, the z-score is 0.269 under setting [1], 0.267 under setting [2] and -0.242 under setting [4]. Also, the AC50 is 2.35 µM [falling, full curve] under setting [3] and 5.9 µM [falling, partial curve] under setting [5].
